Source: PubChem BioAssay AID652272 (Drosophila RNAi Screening Center, 2013)
Test: 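Genome-wide knock-down search for components of Hedgehog signalling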 (primary screen). Cell system: Drosophila clone 8 (Cl8) cells. Reagent: long dsRNA against Drosophila genes. Detection: 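Firefly light from a Hedgehog-responsive ptc promoter reporter and Renilla reference light, both read on a plate reader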. Direction: firefly Hh reporter signal: higher = more ptc reporter light; Renilla reference signal: higher = more Renilla control light. Active means: 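Hit when the z-score averaged over two replicates is under -2 or over +3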. Calls: active = hit: reporter lowered or raised; inactive = not a hit.
In all, the deposit lists about 21,000 reagents; shown is an unselected part of those with a known target gene and a result. Of all reagents, 503 (2.4%) got an active call. 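Raw plate light values, not normalised; calls rest on replicate z-scores that were not deposited; hits include reporter decreases as well as increases.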 Names joined by + are all predicted targets of the reagent. The record does not give: the amount of reagent, the time to read-out.

With KCNQ [DRSC06121], what was measured?
firefly Hh reporter signal, replicate 1: 91398; firefly Hh reporter signal, replicate 2: 54454; Renilla reference signal, replicate 1: 2677; Renilla reference signal, replicate 2: 5405; Call: inactive

For KCNQ [DRSC06230], how do the results read?
firefly Hh reporter signal, replicate 1: 92377; firefly Hh reporter signal, replicate 2: 50321; Renilla reference signal, replicate 1: 2585; Renilla reference signal, replicate 2: 4052; Call: inactive

For CG13850 [DRSC14700], how do the results read?
firefly Hh reporter signal, replicate 1: 97703; firefly Hh reporter signal, replicate 2: 80498; Renilla reference signal, replicate 1: 4229; Renilla reference signal, replicate 2: 3568; Call: inactive

How did the screen score tant [DRSC11401]?
firefly Hh reporter signal, replicate 1: 26738; firefly Hh reporter signal, replicate 2: 35249; Renilla reference signal, replicate 1: 4131; Renilla reference signal, replicate 2: 3528; Call: inactive

How did the screen score CG30423 [DRSC04013]?
firefly Hh reporter signal, replicate 1: 1.21e5; firefly Hh reporter signal, replicate 2: 2.52e5; Renilla reference signal, replicate 1: 3149; Renilla reference signal, replicate 2: 11013; Call: inactive

For CG31975 + ovm [DRSC00323], what does the deposit list?
firefly Hh reporter signal, replicate 1: 1.10e5; firefly Hh reporter signal, replicate 2: 78260; Renilla reference signal, replicate 1: 2923; Renilla reference signal, replicate 2: 2381; Call: inactive

With Enoph [DRSC12201], how do the results read?
firefly Hh reporter signal, replicate 1: 94162; firefly Hh reporter signal, replicate 2: 1.89e5; Renilla reference signal, replicate 1: 4266; Renilla reference signal, replicate 2: 5569; Call: inactive

For scf [DRSC08735], what was measured?
firefly Hh reporter signal, replicate 1: 52502; firefly Hh reporter signal, replicate 2: 29459; Renilla reference signal, replicate 1: 1907; Renilla reference signal, replicate 2: 2024; Call: inactive

Which result is listed for CG8765 [DRSC11041]?
firefly Hh reporter signal, replicate 1: 58144; firefly Hh reporter signal, replicate 2: 68923; Renilla reference signal, replicate 1: 2791; Renilla reference signal, replicate 2: 2469; Call: inactive

How did the screen score Vha13 [DRSC16895]?
firefly Hh reporter signal, replicate 1: 4.83e5; firefly Hh reporter signal, replicate 2: 97349; Renilla reference signal, replicate 1: 32777; Renilla reference signal, replicate 2: 4185; Call: inactive

What is on record for CG14259 [DRSC14754]?
firefly Hh reporter signal, replicate 1: 64490; firefly Hh reporter signal, replicate 2: 1.03e5; Renilla reference signal, replicate 1: 1816; Renilla reference signal, replicate 2: 3412; Call: inactive

With olf186-M [DRSC07657], what was measured?
firefly Hh reporter signal, replicate 1: 51875; firefly Hh reporter signal, replicate 2: 57874; Renilla reference signal, replicate 1: 1014; Renilla reference signal, replicate 2: 4384; Call: inactive

With sax [DRSC07675], what does the deposit list?
firefly Hh reporter signal, replicate 1: 98945; firefly Hh reporter signal, replicate 2: 53197; Renilla reference signal, replicate 1: 5568; Renilla reference signal, replicate 2: 2908; Call: inactive

For gem [DRSC06093], what was measured?
firefly Hh reporter signal, replicate 1: 79555; firefly Hh reporter signal, replicate 2: 31280; Renilla reference signal, replicate 1: 3578; Renilla reference signal, replicate 2: 1173; Call: inactive

For gem [DRSC06847], what was measured?
firefly Hh reporter signal, replicate 1: 99713; firefly Hh reporter signal, replicate 2: 37920; Renilla reference signal, replicate 1: 2155; Renilla reference signal, replicate 2: 3127; Call: inactive

Quoted from the listing (2 entries):
tant [DRSC11401] — firefly Hh reporter signal, replicate 1 = 26738; firefly Hh reporter signal, replicate 2 = 35249; Renilla reference signal, replicate 1 = 4131; Renilla reference signal, replicate 2 = 3528; Call = inactive
CG30423 [DRSC04013] — firefly Hh reporter signal, replicate 1 = 1.21e5; firefly Hh reporter signal, replicate 2 = 2.52e5; Renilla reference signal, replicate 1 = 3149; Renilla reference signal, replicate 2 = 11013; Call = inactive
